# Assay results reported in PubChem BioAssay AID662 (National Center for Advancing Translational Sciences (NCATS), 2007).
# The list shows a part of the results. Further columns of the screen follow, without active or inactive calls. Compounds called inactive in the main read-out are mostly missing here. Words in brackets tell the shape of the fitted curve; partial curves, single points and poor fits give uncertain potencies.
# Test: Cell signaling CRE-BLA (Fsk stim)
# Details: CHO CRE-bla reporter (cAMP response element driving beta-lactamase), forskolin EC10, beta-lactamase ratio; measured here: 460 nm blue channel
# Method in brief: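 Titrated compounds plus EC10 NKH 477 on CHO CRE-bla cells, 3 h, 37 °C. CCF4, 2 h RT. Ratio 460/530 nm → AC50.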
row,SMILES,AC50
1,COCCn1c(=O)c(-c2ccccc2)nc2cncnc21,"25.1 µM [rising, single point]"
2,COCCn1c(C)cc(C(=O)CSc2nc(C)nc3sc4c(c23)CCC4)c1C,"1.26 µM [rising, partial curve]"
3,COc1ccc(C(=O)c2ccc(OC)c(N)c2)cc1N,"12.6 µM [rising, single point]"
4,Cn1c(C(=O)NCC2CCCO2)cc2c(=O)n3ccccc3nc21 (centres undefined),"1.26 µM [rising, full curve]"
5,CCCn1nnnc1SCC(=O)c1ccc2c(c1)OCCO2,"2.51 µM [falling, partial curve]"
6,O=C(N1CCN(CCO)CC1)N1c2ccccc2C=Cc2ccccc21,"5.01 µM [falling, single point]"
7,Cc1cc(-n2nc(C)cc2C)nc(N)n1,"12.6 µM [rising, single point]"
8,[O-][N+]1=c2ccc(Nc3ccccc3)cc2=NC12CCCCC2,"2.51 µM [falling, full curve]"
9,Nc1nc(N)c2nc(CNc3ccc(C(=O)N[C@H](CCC(=O)O)C(=O)O)cc3)cnc2n1,"25.1 µM [rising, partial curve]"
10,CS(=O)(=O)c1ccc2nc(NC(=O)CC3CCCC3)sc2c1,"12.6 µM [rising, single point]"
11,CNC(=O)c1nnn(Cc2ccccc2)c1NC(=O)C(F)(F)F,"1 µM [rising, partial curve, poor fit]"
12,CCOC(=O)N1CCN(C(=O)c2ccc3c(=O)n(CCC4=CCCCC4)c(=S)[nH]c3c2)CC1,"5.01 µM [rising, single point]"
13,O=S(=O)(NCc1ccccc1)c1cccc2nonc12,"0.00794 µM [falling, full curve]"
14,C/C=C/Cn1c(N2CCCCCC2)nc2c1c(=O)[nH]c(=O)n2C,"1.26 µM [rising, full curve]"
15,O=C(CCNS(=O)(=O)c1cccc2nsnc12)NC1CCCc2ccccc21 (centres undefined),"25.1 µM [rising, single point]"
16,Cc1noc(C)c1COC(=O)c1ccc2c(c1)OCO2,"5.01 µM [falling, single point]"
17,CCOC(=O)c1cc(C)n(-c2c(C)n(C)n(-c3ccccc3)c2=O)c1C,"1.26 µM [rising, single point]"
18,O=C(NCc1ccncc1)c1ccc(Br)cc1,"1 µM [rising, single point]"
19,COc1ccc(-n2nc3cc(C)c(N)c(Br)c3n2)cc1,"25.1 µM [rising, single point]"
20,O=C(NC1CCCCC1)C(c1ccco1)N(Cc1cccs1)C(=O)Cn1nnc2ccccc21 (centres undefined),"0.00398 µM [falling, full curve, poor fit]"
21,CCCCCn1c(S(=O)(=O)O)nc2ccccc21,"0.398 µM [falling, partial curve]"
22,Cc1ccc(C2CC(=O)N3CN(c4ccc(Br)cc4)CSC3=C2C#N)o1 (centres undefined),"25.1 µM [falling, partial curve]"
23,Cc1cc(NC(=O)c2sccc2C)n(-c2cccc(Cl)c2)n1,"7.94 µM [rising, partial curve]"

row,SMILES,AC50
1,CC(C)Cn1c(=O)c2c(nc3n2CCCN3CCc2ccccc2)n(C)c1=O,"6.31 µM [rising, partial curve]"
2,O=C1CC(c2ccccc2)Cc2nc(NCc3ccco3)ncc21 (centres undefined),"25.1 µM [falling, single point]"
3,Cc1cnc(CNc2ncnc3ccc(-c4ccccc4Cl)cc23)cn1,"5.01 µM [falling, single point]"
4,Cc1ccc(NC(=O)Cn2nnc(C(=O)Nc3ccc(C)c(C)c3)c2N)cc1,"25.1 µM [falling, single point]"
5,CCOc1ccc(NS(=O)(=O)c2ccc3[nH]cc(C(=O)N(CC)CC)c(=O)c3c2)cc1,"12.6 µM [falling, partial curve, poor fit]"
6,c1coc(-c2nc3nc4ccccc4nc3n2CC2CCCO2)c1 (centres undefined),"15.8 µM [rising, partial curve]"
7,CCC(=O)N1CCc2cc(S(=O)(=O)CCC(=O)NCCC3=CCCCC3)ccc21,"25.1 µM [rising, single point]"
8,O=c1cc(N2CCOCC2)[nH]c(=O)n1C1CCCCC1,"3.98 µM [falling, single point]"
9,CN1CCCc2cc3c(C(F)(F)F)cc(=O)oc3nc21,"10 µM [rising, partial curve]"
10,Cc1nnc2sc(-c3ccc(NC(=O)c4ccc(-c5ccc(Br)cc5)o4)cc3)nn12,"12.6 µM [rising, single point]"
11,CCC1(CC)C(=O)NC(=O)NC1=Nc1cccc(OC)c1,"3.16 µM [falling, full curve]"
12,CCc1c(C)nc2ncnn2c1NCCc1ccc(OC)cc1,"10 µM [rising, partial curve]"
13,CCCc1cc(C(=O)Nc2sc3c(c2C#N)CCC3)no1,"10 µM [rising, partial curve]"
14,Cc1cc(=O)n2nc(N3CCC(C(=O)NCc4cccnc4)CC3)sc2n1,"25.1 µM [rising, single point]"
15,O=c1oc2ccccc2c2c1ncn2C1CCCCC1,"12.6 µM [rising, partial curve]"
16,COC(=O)c1[nH]c2cc(C)ccc2c1NC(=O)CN1CCN(c2ccccc2OC)CC1,"20 µM [falling, partial curve, poor fit]"
17,COC(=O)C1=C(CN2CCCc3ccccc32)NC(=O)NC1c1ccc(F)cc1 (centres undefined),"6.31 µM [rising, partial curve]"
18,O=C(NCc1cccs1)c1cccc(S(=O)(=O)N2CCCCC2)c1,"3.98 µM [falling, partial curve, poor fit]"
19,COc1ccccc1NC(=O)CN1C(=O)CCS(=O)(=O)c2ccccc21,"0.2 µM [falling, full curve]"
20,CCC(=O)Nc1ccc(S(=O)(=O)Nc2cccc(C)c2)cc1OC,"0.316 µM [rising, full curve]"
21,Cc1onc(-c2ccccc2Cl)c1C(=O)N1CC(C)OC(C)C1 (centres undefined),"3.16 µM [falling, full curve]"
22,COCCn1c(=O)c(-c2cccc(C#N)c2)nc2cnc(N(C)C)nc21,"15.8 µM [rising, partial curve]"
23,Cc1cc(N2CCOCC2)nc(SCC(=O)c2ccc(Cl)cc2)n1,"10 µM [rising, partial curve]"

# By substructure, the compounds so far containing a CF3 group (2)
row,SMILES,AC50
11,CNC(=O)c1nnn(Cc2ccccc2)c1NC(=O)C(F)(F)F,"1 µM [rising, partial curve, poor fit]"
9,CN1CCCc2cc3c(C(F)(F)F)cc(=O)oc3nc21,"10 µM [rising, partial curve]"

# Additional results:

row,SMILES,AC50
1,COc1ccc(NC(=O)N(C2CCCCC2)C(C)c2cccnc2)c(OC)c1 (centres undefined),"0.2 µM [falling, full curve]"
2,CCOC(=O)CSc1nc2c(sc3ccccc32)c(=O)n1CCCN1CCOCC1,"25.1 µM [rising, single point]"
3,CC(OC(=O)C1CCN(S(=O)(=O)c2ccccc2)CC1)C(=O)Nc1ncc(Cl)cc1Cl (centres undefined),"3.98 µM [rising, single point]"
4,CSc1nnc2c(n1)[nH]c1c(C)cccc12,"10 µM [rising, partial curve]"
5,CC(=O)Oc1cccc(N2C(=O)C3C4C=CC(C4)C3C2=O)c1 (centres undefined),"0.398 µM [rising, partial curve]"
6,COCCn1c(N)c(S(=O)(=O)c2cccs2)c2nc3ccccc3nc21,"10 µM [rising, partial curve]"
7,O=C(Nc1ccc(F)cc1F)c1cccnc1,"3.98 µM [falling, partial curve]"
8,CC(C)NC[C@H](O)COc1cccc2[nH]ccc12,"31.6 µM [falling, partial curve, poor fit]"
9,Cc1onc(-c2ccccc2)c1C(=O)Nc1ccccc1N1CCOCC1,"20 µM [rising, single point]"
10,COC(=O)c1cn(NC(=O)c2ccc3c(c2)OCO3)c(=O)c2ccccc12,"0.00398 µM [falling, full curve, poor fit]"
11,COc1ccc(S(=O)(=O)N2CCN(CC(=O)Nc3ccc(F)c(F)c3)CC2)cc1,"0.0316 µM [falling, full curve]"
12,CC(C)CCNC(=O)c1cnn2c(C(F)(F)F)cc(-c3ccco3)nc12,"1.58 µM [rising, partial curve]"
13,O=C(Cc1ccccc1)Nc1nc2ccc(Cl)cc2c2nc(-c3ccco3)nn12,"50.1 µM [rising, partial curve, poor fit]"
14,CCCN1C(=O)SC(CC(=O)Nc2ccccc2)C1=O (centres undefined),"0.316 µM [falling, partial curve, poor fit]"
15,CCOc1ccccc1Nc1nnc(C)c(=O)[nH]1,"25.1 µM [falling, single point]"
16,Cc1ccccc1-n1c(=O)cc(N2CCc3ccccc3C2)[nH]c1=O,"2.51 µM [falling, single point]"
17,O=C(O)C1CC=C(Cl)CC1C(=O)NCC1OCCc2ccccc21 (centres undefined),"0.398 µM [falling, full curve, poor fit]"
18,CCOc1ccccc1-c1nn2c(Cc3ccccc3)nnc2s1,"10 µM [rising, partial curve]"
19,CCCCn1cnc2cc(NCc3cccc(OC)c3O)ccc21,"15.8 µM [falling, partial curve, poor fit]"
20,Oc1ccc(Br)cc1/C=N/n1cnc2ccccc21,"0.00398 µM [falling, full curve, poor fit]"
21,COCC(=O)N(Cc1cc2cc(OC)ccc2[nH]c1=O)c1ccccc1,"7.94 µM [rising, partial curve]"
22,CCCCNc1ncnc2c1cnn2-c1ccccc1,"12.6 µM [rising, partial curve]"
23,Cc1cc(NC(=O)CSc2nnc(-c3ccc4c(c3)OCCO4)o2)no1,"10 µM [falling, partial curve]"
